Results from PubChem BioAssay AID504444 (National Center for Advancing Translational Sciences (NCATS), 2011).
Hit rate of the full screen: of about 360,000 compounds, about 7,500 (2.1%) were called active. This list was built around the results that the source calls inconclusive (neither active nor inactive); the mix of calls is not that of the screen. Calls follow the shape of the dose curve; as a rule, active = well fitted inhibition curve with a large enough effect; inconclusive = small, poorly fitted or top-dose-only effect, or effect the other way; inactive = flat fitted curve, though single readings scatter. Where the call is inconclusive, the potency comes from a doubtful curve fit.

assay: Nrf2 qHTS screen for inhibitors; settings: A549 ARE-Fluc reporter, luciferase luminescence, 18-24 h; activity change, negative = inhibition: at 46 µM (top of the series); also: nearly all actives have a fitted effect of over 60% in size
In short: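 Cells were seeded and rested 2 h, then exposed to compounds for 18-24 h. CellTiter-Fluor was read first as a viability measure. BugLite was added 15 min before the final luminescent read of ARE-luciferase activity in A549 cells.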
% is scaled to controls: 0 for no effect and ±100 for the full control effect; potency is read from the fitted curve at half-maximal effect.

| SMILES | activity change, negative = inhibition | Potency |
| --- | --- | --- |
| COc1ccc(S(=O)(=O)N(C)C[C@@H]2Oc3c(NS(C)(=O)=O)cccc3C(=O)N([C@@H](C)CO)C[C@H]2C)cc1 | inactive: -4.21% | – |
| Nc1nc(-c2ccco2)nn1C(=O)c1ccccc1 | inactive: -14.3% | – |
| CC(C)c1ccc(OCC(=O)NNC(=S)NC(=O)C2CC2)cc1 | – | inconclusive: 29.1 µM [falling, single point] |
| CCOC(=O)Cn1cc(C=O)c2ccccc21 | inactive: 1.73% | – |
| CCOc1ccc(NC(=O)CN(C)C(=O)C(C)Oc2ccc(Cl)cc2)cc1OCC (centres undefined) | – | inconclusive: 16.4 µM [falling, single point] |
| Cc1onc(-c2ccccc2Cl)c1C(=O)NCc1ccc(F)cc1 | inactive: 1.5% | – |
| CCCCOC(=O)c1ccc(NC(=O)COC(=O)C2CSC3(C)CCC(=O)N23)cc1 (centres undefined) | inactive: 14.3% | – |
| CC(Oc1ccc(Cl)cc1Cl)c1nc(-c2ccc(NC(=O)c3ccncc3)cc2)no1 (centres undefined) | – | active: 10.3 µM |
| O=C(O)c1ccccc1NC(=O)c1ccccc1Nc1ccccc1 | – | inconclusive: 32.6 µM [falling, single point] |
| CCCOc1ccc(-c2nc(C#N)c(N3CCc4ccccc4C3)o2)cc1 | inactive: -8.25% | – |
| COC(=O)c1ccccc1NC(=O)C(=O)NCC1CCCO1 (centres undefined) | inactive: -4.63% | – |
| O=C(CCNC(=O)c1ccccc1Cl)Nc1nc(-c2ccc3ccccc3c2)cs1 | – | inconclusive: 29.1 µM [falling, single point] |
| Cc1noc(NS(=O)(=O)c2ccc(NC(=O)Cc3ccc([N+](=O)[O-])cc3)cc2)c1C | – | inconclusive: 14.6 µM [activator, partial curve, poor fit] |
| CC(=O)c1c(C)[nH]c(C(=O)COC(=O)CCSc2ccccc2)c1C | inactive: 0.174% | – |
| COc1ccc(C(=O)N2CCC(c3c[nH]c4ccccc34)(c3c[nH]c4ccccc34)CC2)cc1 | – | inconclusive: 16.4 µM [falling, partial curve] |
| O=C(NCC1COc2ccccc2O1)c1cccc(S(=O)(=O)NCc2ccccc2)c1 (centres undefined) | – | inconclusive: 18.4 µM [falling, single point] |
| O=C(NCCc1nc2ccccc2n1CCOc1cccc2ccccc12)C1CCCCC1 | inactive: -19.9% | – |
| COc1ccc(-c2ccc(OC)c(C3C4C=CCC(C)C4C(=O)N3Cc3ccccc3)c2)cc1OC (centres undefined) | – | inconclusive: 20.6 µM [falling, single point] |
| Cc1occc1-c1nnc(SCC(=O)Nc2ccccc2)n1Cc1ccccc1 | – | inconclusive: 29.1 µM [falling, single point] |
| CCN1CCN(CCNC(=O)c2ccc(/C=C3/Sc4ccccc4N(Cc4cccc(Cl)c4)C3=O)cc2)CC1 | – | inconclusive: 29.1 µM [falling, single point] |
| Fc1ccccc1CNc1cc(Cl)cc(Cl)c1 | – | inconclusive: 29.1 µM [falling, single point] |
| CCC(C(=O)OCC(=O)Nc1cc(Cl)ccc1Cl)c1ccccc1 (centres undefined) | inactive: 1.92% | – |

| SMILES | activity change, negative = inhibition | Potency |
| --- | --- | --- |
| COc1ccc(NC(=O)Nc2nnc(N3CCCCCC3)s2)c(OC)c1 | – | inconclusive: 2.91 µM [activator, single point] |
| O=C(Nc1ccc(NC(=O)c2cccs2)cc1)c1ccc2c(c1)OCCO2 | – | inconclusive: 23.1 µM [falling, single point] |
| N#Cc1nc(-c2ccco2)oc1N1CCN(c2cccc(Cl)c2)CC1 | – | active: 1.84 µM |
| CCCCNC(=O)CSc1nc(CCC)nc2ccccc12 | inactive: -29.3% | – |
| Cc1c(C(=O)Nc2ccccc2)csc1-c1ccccc1 | – | inconclusive: 0.731 µM [activator, full curve, poor fit] |
| COc1cnc(-c2ccccn2)nc1Sc1c(Cl)cccc1Cl | – | inconclusive: 32.6 µM [falling, single point] |
| CCOc1cc(S(=O)(=O)N(Cc2ccccc2)Cc2ccccc2)c(OCC)cc1-n1cnnn1 | inactive: -4.48% | – |
| Cn1cnnc1SCC(=O)Nc1ccc2nc(SCc3ccccc3F)sc2c1 | – | inconclusive: 23.1 µM [activator, partial curve] |
| CCOc1ccc(N(CC)S(=O)(=O)N2CCCC(C(=O)NCc3ccc(SC)cc3)C2)cc1 (centres undefined) | – | inconclusive: 29.1 µM [falling, single point] |
| CN(C)CCN(C(=O)c1ccc2c(c1)CCCC2)c1nc2c(F)cccc2s1 | – | inconclusive: 29.1 µM [activator, single point] |
| CC(C)(C)c1nn(-c2ccccc2)c2[nH]c(=O)c(CNCc3ccc4c(c3)OCO4)cc12 | – | inconclusive: 20.6 µM [falling, single point] |
| CC(C)C(=O)Nc1nc2c(ncn2C2CC(O)C(CO)O2)c(=O)[nH]1 (centres undefined) | – | inconclusive: 0.0058 µM [falling, full curve, poor fit] |
| Cc1ccccc1C(=O)Oc1ccccc1C(=O)N1CCOCC1 | – | inconclusive: 0.0411 µM [falling, full curve, poor fit] |
| CCn1cnc2sc(C(=O)Nc3ccccc3OC)c(C)c2c1=O | inactive: -17.9% | – |
| CCNC(=O)/C(=C\C=C\c1ccccc1)NC(=O)c1ccc(Br)o1 | inactive: 7.9% | – |
| COC(=O)C(NC(C)=O)(Nc1nc2c(C)cc(C)cc2s1)C(F)(F)F (centres undefined) | – | inconclusive: 1.58 µM [falling, partial curve, poor fit] |
| COc1ccc(NC(=O)COc2cccc3c2CCN(Cc2cccnc2)C3=O)c(OC)c1 | – | inconclusive: 29.1 µM [falling, partial curve, poor fit] |
| Cc1nc(C)n(CC(O)COc2ccc(C(=O)c3ccccc3)cc2)n1 (centres undefined) | – | inconclusive: 14.6 µM [falling, partial curve, poor fit] |
| Cc1oc(-c2ccccc2F)nc1CS(=O)(=O)CC(=O)N1CCN(c2ccc(Cl)cc2)CC1 | – | active: 5.8 µM |
| CC(=O)Cc1nsc(NC(=O)c2ccc(Cl)cc2Cl)n1 | – | inconclusive: 1.16 µM [activator, full curve] |
| CCc1cccc(NC(=O)c2c(N3CCCC3=O)c3cc(C)ccc3n2C)c1 | – | inconclusive: 20.6 µM [falling, partial curve, poor fit] |
| CCN1c2ccccc2NC2C1C(C(C)=O)C(=O)N2c1ccc(Cl)cc1 (centres undefined) | – | inconclusive: 0.103 µM [activator, full curve, poor fit] |

Exported with bars between the fields: part of the list above
SMILES | activity change, negative = inhibition | Potency
CCOC(=O)Cn1cc(C=O)c2ccccc21 | inactive: 1.73% | –
CCN1c2ccccc2NC2C1C(C(C)=O)C(=O)N2c1ccc(Cl)cc1 (centres undefined) | – | inconclusive: 0.103 µM [activator, full curve, poor fit]
